The results in this text go back to PMC2642629.

No constants are given. Whether binding was seen depends on the method and setting. Binding seen in cells or lysates may run through a third protein. Some results given as binding are weak or reduced against the parent protein; the word gives no strength. Tags and fused reporters may be left off the sequences shown.

In test [1] the target is T1, O-linked β-N-acetylglucosamine transferase (rat (endogenous in RINm5F)) (UniProt P56558).
T1 sequence: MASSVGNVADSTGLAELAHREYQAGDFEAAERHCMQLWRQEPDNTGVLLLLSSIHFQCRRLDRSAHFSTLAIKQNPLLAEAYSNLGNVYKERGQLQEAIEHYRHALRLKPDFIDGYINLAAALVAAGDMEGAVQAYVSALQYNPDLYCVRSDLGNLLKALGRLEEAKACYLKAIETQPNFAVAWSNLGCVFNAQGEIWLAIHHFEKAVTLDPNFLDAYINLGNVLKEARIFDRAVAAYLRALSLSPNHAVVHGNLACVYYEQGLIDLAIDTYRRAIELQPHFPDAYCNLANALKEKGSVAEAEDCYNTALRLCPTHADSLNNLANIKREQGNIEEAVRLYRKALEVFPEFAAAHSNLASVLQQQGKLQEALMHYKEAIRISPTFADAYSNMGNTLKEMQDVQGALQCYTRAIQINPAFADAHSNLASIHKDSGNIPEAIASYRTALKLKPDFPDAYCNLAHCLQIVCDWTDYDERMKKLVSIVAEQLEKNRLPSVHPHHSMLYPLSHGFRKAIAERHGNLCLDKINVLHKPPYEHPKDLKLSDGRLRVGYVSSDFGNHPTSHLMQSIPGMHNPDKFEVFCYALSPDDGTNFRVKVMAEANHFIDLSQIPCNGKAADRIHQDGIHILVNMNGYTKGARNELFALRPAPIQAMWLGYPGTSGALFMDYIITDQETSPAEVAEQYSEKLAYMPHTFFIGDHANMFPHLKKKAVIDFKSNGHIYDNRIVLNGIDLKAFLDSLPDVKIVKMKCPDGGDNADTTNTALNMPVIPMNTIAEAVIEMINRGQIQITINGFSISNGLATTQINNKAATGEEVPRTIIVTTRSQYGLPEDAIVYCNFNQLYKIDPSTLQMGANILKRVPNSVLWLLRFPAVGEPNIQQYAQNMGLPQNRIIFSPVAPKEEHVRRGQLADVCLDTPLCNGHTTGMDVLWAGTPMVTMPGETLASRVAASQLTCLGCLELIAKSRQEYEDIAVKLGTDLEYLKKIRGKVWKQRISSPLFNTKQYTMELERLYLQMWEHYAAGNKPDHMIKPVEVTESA
Put plainly: co-IP; RINm5F cells treated with insulin (100 nM); lysate incubated overnight at 4°C with rabbit polyclonal anti-PHB or monoclonal anti-OGT antibody, Dynabeads Protein A, washed 5x in ice cold PBS; immunoblot with the respective antibodies. For orientation: Immunoblotting shows a protein as a band on a membrane.

Test [2] addresses T1, O-linked β-N-acetylglucosamine transferase (rat (endogenous in RINm5F)). Put plainly: co-IP; RINm5F cells without insulin treatment; lysate incubated overnight at 4°C with rabbit polyclonal anti-PHB or monoclonal anti-OGT antibody, Dynabeads Protein A, washed 5x in ice cold PBS; immunoblot with the respective antibodies.
The target of test [3] is T2, Prohibitin (rat (endogenous in RINm5F)) (UniProt P67779).
T2 sequence: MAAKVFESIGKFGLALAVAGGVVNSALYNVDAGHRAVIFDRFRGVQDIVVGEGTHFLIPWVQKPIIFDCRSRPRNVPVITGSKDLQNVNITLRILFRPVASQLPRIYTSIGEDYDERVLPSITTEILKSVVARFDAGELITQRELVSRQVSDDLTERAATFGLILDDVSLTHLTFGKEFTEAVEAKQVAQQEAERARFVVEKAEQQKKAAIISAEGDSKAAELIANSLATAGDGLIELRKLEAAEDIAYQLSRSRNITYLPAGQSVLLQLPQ
Put plainly: co-IP; RINm5F cells treated with insulin (100 nM); lysate incubated overnight at 4°C with rabbit polyclonal anti-PHB or monoclonal anti-OGT antibody, Dynabeads Protein A, washed 5x in ice cold PBS; immunoblot with the respective antibodies.

B1: Prohibitin (protein, UniProt P67779 1-272)
chain: T2 sequence
As to B1, the binding result is “binds” in test [1] and “binds weakly” in test [2].

B2: O-linked β-N-acetylglucosamine transferase (enzyme, UniProt P56558 1-1036)
chain: T1 sequence
With B2, the binding entry in test [3] was “binds”.
